Measurements as given in patent US9732071B2, “Compounds useful as modulators of TRPM8” (Senomyx, Inc., priority 2015, dated 2017).

System: panelists
Experiment: Quantitative descriptive sensory evaluation by ten trained panelists (15-point linescale)
Format: in vivo, human
Design: key to Numbing, Duncan's (5%) level / Total Burning, Duncan's (5%) level / Tingling, Duncan's (5%) level / Total Trigeminal Impact, Duncan's (5%) level / Icy Cool In Mouth (after expectoration to 60 minutes), Duncan's (5%) level / Icy Cool In Mouth and Immediately After Expectoration, Duncan's (5%) level / Cooling Breath In (after expectoration to 60 minutes), Duncan's (5%) level: the Duncan's levels are reported as Levels A, B, and C; the Duncan's levels are reported as Levels A, B, and C; the Duncan's levels are reported as Levels A, B, and C
[1] = 5 μM solution, after expectoration to 60 minutes
[2] = 3 μM solution, 15-point linescale
[3] = 3 μM solution, after expectoration to 60 minutes

## COc1ccc(OCC(=O)N(Cc2cccs2)c2cc[nH]n2)cc1 [Compound 103, 2-(4-methoxyphenoxy)-N-(1H-pyrazol-3-yl)-N-(thiophen-2-ylmethyl)acetamide]
[1]
  Numbing, Duncan's (5%) level: A
  Total Burning, Duncan's (5%) level: A
  Total Trigeminal Impact, Duncan's (5%) level: A

## CCc1ccc(OCC(=O)N(Cc2cccs2)c2cc[nH]n2)cc1 [Compound 104, 2-(4-ethylphenoxy)-N-(1H-pyrazol-3-yl)-N-(thiophen-2-ylmethyl)acetamide]
3 μM solution
  Cooling Breath In (after expectoration to 60 minutes), Duncan's (5%) level: C
  Icy Cool In Mouth (after expectoration to 60 minutes), Duncan's (5%) level: C
  Icy Cool In Mouth and Immediately After Expectoration, Duncan's (5%) level: B

## O=C(COc1ccc(F)cc1)N(Cc1cccs1)c1cc[nH]n1 [Compound 102, 2-(4-flourophenoxy)-N-(1H-pyrazol-5-yl)-N-(thiophen-2-ylmethyl)acetamide]
[1]
  Tingling, Duncan's (5%) level: A
  Total Burning, Duncan's (5%) level: A
  Total Trigeminal Impact, Duncan's (5%) level: A

## Cc1ccc(OCC(=O)N(Cc2cccs2)c2ccn[nH]2)cc1 [Comparative Compound 1, reference compound]
3 μM solution
  Cooling Breath In (after expectoration to 60 minutes), Duncan's (5%) level: B
  Icy Cool In Mouth (after expectoration to 60 minutes), Duncan's (5%) level: B
[2]
  Average Bitterness at 2 Minutes After Expectoration, Bitterness Rating: 1.10
  Average Numbing (after expectoration to 60 minutes): 1.5
  Average Tingling (after expectoration to 60 minutes): 0.7
  Average Total Burning (after expectoration to 60 minutes): 1.1
  Average Total Trigeminal Impact (after expectoration to 60 minutes): 2.8
[3]
  Numbing, Duncan's (5%) level: B
  Total Burning, Duncan's (5%) level: B
  Total Trigeminal Impact, Duncan's (5%) level: B

## Cc1ccc(OCC(=O)N(Cc2cccs2)c2cc[nH]n2)cc1C [Compound 105, 2-(3,4-dimethylphenoxy)-N-(1H-pyrazol-3-yl)-N-(thiophen-2-ylmethyl)acetamide]
5 μM solution
  Cooling Breath In (after expectoration to 60 minutes), Duncan's (5%) level: C
  Icy Cool In Mouth (after expectoration to 60 minutes), Duncan's (5%) level: C
